Measurements from the supplement of paper PMC11438910.
This is one part of the list. Most of these values are background signal.

Assays:
Test in all cases: fluorescence intensity of antibody binding to polysaccharide-coupled beads; higher = stronger binding
[1] = molecular target: pneumococcal polysaccharide Pn15B
[2] = molecular target: pneumococcal polysaccharide Pn15C
[3] = molecular target: pneumococcal polysaccharide Pn15F
[4] = molecular target: pneumococcal polysaccharide Pn16A
[5] = molecular target: pneumococcal polysaccharide Pn16F
[6] = molecular target: pneumococcal polysaccharide Pn17A
[7] = molecular target: pneumococcal polysaccharide Pn17F
[8] = molecular target: pneumococcal polysaccharide Pn18A
[9] = molecular target: pneumococcal polysaccharide Pn18B
[10] = molecular target: pneumococcal polysaccharide Pn18C
[11] = molecular target: pneumococcal polysaccharide Pn18F
[12] = molecular target: pneumococcal polysaccharide Pn19A
[13] = antibody concentration 2337.65 ng/mL
[14] = antibody concentration 12500 ng/mL
[15] = antibody concentration 0.1 ng/mL
[16] = antibody concentration 0.534724 ng/mL
[17] = antibody concentration 2.8593 ng/mL
[18] = antibody concentration 15.2894 ng/mL
[19] = antibody concentration 81.7561 ng/mL
[20] = antibody concentration 437.17 ng/mL

B1: 4-173.4 (protein)
chain 1: QLQLQESGPGLVKPSETLSLTCAVSGGSISSHYWSWIRQPPGKGLEWIGRFSAGGGSTDYNPSLKSRVTISTDTSKNQFTLNLNSVTAADTAVYYCTRGSYTSDYWGQGVLVTVSS
chain 2: QAALTQSPSVSGSPGQSVTISCTGTSSDIGGYIRVSWYQQHPGKAPKLMIYEVSKRPSGVSDRFSGSKSGNTASLTISGLQAEDEADYYCFSYARGDTVLLGGGTRLTVL
fluorescence intensity [1, 13]: 22.8 MFI | fluorescence intensity [1, 14]: 29.2 MFI | fluorescence intensity [2, 15]: 16 MFI | fluorescence intensity [2, 16]: 17.8 MFI | fluorescence intensity [2, 17]: 15.8 MFI | fluorescence intensity [2, 18]: 14.5 MFI | fluorescence intensity [2, 19]: 15.5 MFI | fluorescence intensity [2, 20]: 19 MFI | fluorescence intensity [2, 13]: 19 MFI | fluorescence intensity [2, 14]: 20.5 MFI | fluorescence intensity [3, 15]: 17 MFI | fluorescence intensity [3, 16]: 16.2 MFI | fluorescence intensity [3, 17]: 17 MFI | fluorescence intensity [3, 18]: 18.2 MFI | fluorescence intensity [3, 19]: 17.8 MFI | fluorescence intensity [3, 20]: 17.5 MFI | fluorescence intensity [3, 13]: 18 MFI | fluorescence intensity [3, 14]: 23.5 MFI | fluorescence intensity [4, 15]: 15 MFI | fluorescence intensity [4, 16]: 13 MFI | fluorescence intensity [4, 17]: 13.5 MFI | fluorescence intensity [4, 18]: 12.5 MFI | fluorescence intensity [4, 19]: 15.2 MFI | fluorescence intensity [4, 20]: 15 MFI | fluorescence intensity [4, 13]: 15 MFI | fluorescence intensity [4, 14]: 18.8 MFI | fluorescence intensity [5, 15]: 23.2 MFI | fluorescence intensity [5, 16]: 24.2 MFI | fluorescence intensity [5, 17]: 23.8 MFI | fluorescence intensity [5, 18]: 23.5 MFI | fluorescence intensity [5, 19]: 23 MFI | fluorescence intensity [5, 20]: 24.5 MFI | fluorescence intensity [5, 13]: 26 MFI | fluorescence intensity [5, 14]: 33 MFI | fluorescence intensity [6, 15]: 21.8 MFI | fluorescence intensity [6, 16]: 21 MFI | fluorescence intensity [6, 17]: 19.5 MFI | fluorescence intensity [6, 18]: 20.8 MFI | fluorescence intensity [6, 19]: 20.2 MFI | fluorescence intensity [6, 20]: 20 MFI | fluorescence intensity [6, 13]: 21 MFI | fluorescence intensity [6, 14]: 23.5 MFI | fluorescence intensity [7, 15]: 26.5 MFI | fluorescence intensity [7, 16]: 25.5 MFI | fluorescence intensity [7, 17]: 25 MFI | fluorescence intensity [7, 18]: 25.5 MFI | fluorescence intensity [7, 19]: 25 MFI | fluorescence intensity [7, 20]: 28.2 MFI | fluorescence intensity [7, 13]: 28.5 MFI | fluorescence intensity [7, 14]: 30 MFI | fluorescence intensity [8, 15]: 25 MFI | fluorescence intensity [8, 16]: 24.5 MFI | fluorescence intensity [8, 17]: 25 MFI | fluorescence intensity [8, 18]: 23.5 MFI | fluorescence intensity [8, 19]: 23.5 MFI | fluorescence intensity [8, 20]: 23 MFI | fluorescence intensity [8, 13]: 24 MFI | fluorescence intensity [8, 14]: 26.5 MFI | fluorescence intensity [9, 15]: 29.8 MFI | fluorescence intensity [9, 16]: 30 MFI | fluorescence intensity [9, 17]: 29 MFI | fluorescence intensity [9, 18]: 28.5 MFI | fluorescence intensity [9, 19]: 31 MFI | fluorescence intensity [9, 20]: 31.5 MFI | fluorescence intensity [9, 13]: 32.5 MFI | fluorescence intensity [9, 14]: 37.5 MFI | fluorescence intensity [10, 15]: 18.5 MFI | fluorescence intensity [10, 16]: 19.5 MFI | fluorescence intensity [10, 17]: 18 MFI | fluorescence intensity [10, 18]: 20 MFI | fluorescence intensity [10, 19]: 18.5 MFI | fluorescence intensity [10, 20]: 22 MFI | fluorescence intensity [10, 13]: 22.8 MFI | fluorescence intensity [10, 14]: 34 MFI | fluorescence intensity [11, 15]: 25 MFI | fluorescence intensity [11, 16]: 23.8 MFI | fluorescence intensity [11, 17]: 23.2 MFI | fluorescence intensity [11, 18]: 23.5 MFI | fluorescence intensity [11, 19]: 21.5 MFI | fluorescence intensity [11, 20]: 23 MFI | fluorescence intensity [11, 13]: 28 MFI | fluorescence intensity [11, 14]: 32.5 MFI | fluorescence intensity [12, 15]: 17.5 MFI | fluorescence intensity [12, 16]: 19 MFI | fluorescence intensity [12, 17]: 17.8 MFI | fluorescence intensity [12, 18]: 17.5 MFI | fluorescence intensity [12, 19]: 17.5 MFI | fluorescence intensity [12, 20]: 21 MFI | fluorescence intensity [12, 13]: 22.5 MFI | fluorescence intensity [12, 14]: 27.5 MFI
